{"source": "patent US20260284208A1", "about": "“SYSTEM” (Oxford University Innovation Limited, priority 2023, published 2026)", "system": "library of 8,380 IKZF3 degrons (ZF-eGFP/mCherry reporter) in Jurkat cells", "assay": "Pooled library screen (FACS, NGS, limma voom LogFC of positive vs negative read counts)", "assay_type": "cell-based, human", "protocol": "A library of 8,380 IKZF3 degrons was cloned into pLVX-Sprout to create the eGFP/mCherry protein degradation reporter plasmid pool. A lentivirus pool was then generated using the Lenti-X lentiviral vector production method.\nJurkat cells were transduced at a multiplicity of infection of <0.3 with the lentivirus vector library in order to maximise the number of cells with a single integration. Transductions were carried out in 6 well TC-treated cell culture dishes (Falcon) with 3×10^6 cells per well. Cells were incubated for 2 days at 37° C. and 5% CO2 before the supernatant was removed and replaced with fresh media. 6 days post-transduction, mCherry+ cells were isolated via FACS using the FACS Aria Fusion (BD) in a buffer containing PBS (Gibco), 2 mM EDTA (Gibco), 25 mM HEPES (Sigma) and 1% BSA (Sigma). 8 days later, cells were treated with DMSO or a thalidomide analog for 18 hours at 37° C. and 5% CO2. mCherry+GFPlow and NOT(mCherry+GFPlow) cells were sorted by FACS using the FACS Aria Fusion (BD). DMSO treated cells were used to set the mCherry+GFPlow gate and dead cells were excluded from sorting by staining cells with 1 μg/mL DAPI (ThermoFisher). gDNA was isolated using the Maxwell RSC 48 (Promega). gDNA from cells that were unsorted and untreated were also isolated to determine the library representation on the day of compound treatment. Throughout the screen >600× coverage of the library was maintained. 3 biological replicates were carried out with a new transduction taking place each time.\nA two-step PCR was used where the first PCR (PCR1) amplified the integrated degron sequence from gDNA and the second PCR (PCR2) added Illumina adaptors and barcodes to permit multiplexing. See Supp F for PCR1 and PCR2 primers. Q5 Hot Start High-Fidelity 2× Master Mix (New England Biolabs) was used for both PCRs. Sufficient gDNA was amplified in PCR1 in order to maintain >600× coverage and amplicons were purified using solid phase reversible immobilization (SPRI) beads (Beckman Coulter). Purified PCR1 products were analysed on the Tapestation 4200 (Agilent) to confirm purity prior to proceeding to PCR2. Sufficient PCR1 product was amplified in PCR2 in order to maintain >600× coverage and amplicons were run on a 2% agarose TAE gel. Target bands were excised and purified using the NucleoSpin Gel and PCR Clean-up Kit (Machery Nagel). Amplicons were analysed on the Tapestation 4200 and quantified using Qubit dsDNA HS kit (ThermoFisher). PCR products were pooled and sequenced as paired-reads on the NovaSeq (Illumina) using a SP2 200 cycles kit (Illumina).\nCount distributions, percentage of read mapping, library coverage and replicate correlation per sample were assessed for QC purposes.\nTo carry out the library screen, we used the same plasmid construct as in our earlier flow cytometry assays, but pooling all 8,380 mutants together into one Jurkat population, ensuring a copy number of one plasmid per cell (FIG. 4B). […] These GFP-negative cells were then separated from the remaining GFP-positive population using fluorescence activated cell sorting (FACS). These two populations were then sequenced and the relative abundance of every mutant in both populations compared to provide a log FC value for each mutant sequence. This value indicated how frequently a sequence is observed in the GFP-negative population relative to the GFP-positive population, and therefore how effective a degron it is for that particular IMID compound.", "note": "This continues a long series; more values of the same kind are listed elsewhere."}
{"smiles": "O=C1CCC(N2C(=O)c3ccc(N4CCOCC4)cc3C2=O)C(=O)N1", "note": "(stereo not shown) [B03]", "values": [{"measurement": "B03_logFC", "setting": "Degron-ID 3541, SEQ ID NO 4300, 46F_47S_49P_50I_52G_53A_54C_55F_67L_", "result": 2.221}, {"measurement": "B03_logFC", "setting": "Degron-ID 3552, SEQ ID NO 3855, 46F_47S_49P_50I_52G_53A_54P_55F_67L", "result": 2.916}, {"measurement": "B03_logFC", "setting": "Degron-ID 3553, SEQ ID NO 4281, 46F_47S_49P_50I_52G_53A_54Q_55F_67L_", "result": 2.246}, {"measurement": "B03_logFC", "setting": "Degron-ID 3555, SEQ ID NO 3939, 46F_47S_49P_50I_52G_53A_54S_55F_67L", "result": 2.78}, {"measurement": "B03_logFC", "setting": "Degron-ID 3556, SEQ ID NO 4342, 46F_47S_49P_50I_52G_53A_54T_55F_67L_", "result": 2.138}, {"measurement": "B03_logFC", "setting": "Degron-ID 3593, SEQ ID NO 4375, 46F_47S_49P_50V_52G_53A_54Q_55F_67L_", "result": 2.08}, {"measurement": "B03_logFC", "setting": "Degron-ID 3595, SEQ ID NO 4287, 46F_47S_49P_50V_52G_53A_54S_55F_67L_", "result": 2.24}, {"measurement": "B03_logFC", "setting": "Degron-ID 3600, SEQ ID NO 4039, 46F_47T_49D_50I_52G_53A_54A_55F_67L", "result": 2.625}, {"measurement": "B03_logFC", "setting": "Degron-ID 3612, SEQ ID NO 3896, 46F_47T_49D_50I_52G_53A_54P_55F_67L", "result": 2.856}, {"measurement": "B03_logFC", "setting": "Degron-ID 3615, SEQ ID NO 4252, 46F_47T_49D_50I_52G_53A_54S_55F_67L_", "result": 2.295}, {"measurement": "B03_logFC", "setting": "Degron-ID 3660, SEQ ID NO 3702, 46F_47T_49E_50I_52G_53A_54A_55F_67L_", "result": 3.208}, {"measurement": "B03_logFC", "setting": "Degron-ID 3665, SEQ ID NO 4314, 46F_47T_49E_50I_52G_53A_54G_55F_67L_", "result": 2.186}, {"measurement": "B03_logFC", "setting": "Degron-ID 3672, SEQ ID NO 3701, 46F_47T_49E_50I_52G_53A_54P_55F_67L_", "result": 3.214}, {"measurement": "B03_logFC", "setting": "Degron-ID 3674, SEQ ID NO 3750, 46F_47T_49E_50I_52G_53A_54R_55F_67L_", "result": 3.123}, {"measurement": "B03_logFC", "setting": "Degron-ID 3675, SEQ ID NO 3790, 46F_47T_49E_50I_52G_53A_54S_55F_67L_", "result": 3.028}, {"measurement": "B03_logFC", "setting": "Degron-ID 3676, SEQ ID NO 4262, 46F_47T_49E_50I_52G_53A_54T_55F_67L_", "result": 2.275}, {"measurement": "B03_logFC", "setting": "Degron-ID 3700, SEQ ID NO 3692, 46F_47T_49E_50V_52G_53A_54A_55F_67L_", "result": 3.238}, {"measurement": "B03_logFC", "setting": "Degron-ID 3712, SEQ ID NO 3689, 46F_47T_49E_50V_52G_53A_54P_55F_67L_", "result": 3.248}, {"measurement": "B03_logFC", "setting": "Degron-ID 3713, SEQ ID NO 4313, 46F_47T_49E_50V_52G_53A_54Q_55F_67L_", "result": 2.187}, {"measurement": "B03_logFC", "setting": "Degron-ID 3714, SEQ ID NO 3783, 46F_47T_49E_50V_52G_53A_54R_55F_67L_", "result": 3.042}, {"measurement": "B03_logFC", "setting": "Degron-ID 3715, SEQ ID NO 3825, 46F_47T_49E_50V_52G_53A_54S_55F_67L_", "result": 2.96}, {"measurement": "B03_logFC", "setting": "Degron-ID 3720, SEQ ID NO 4249, 46F_47T_49N_50I_52G_53A_54A_55F_67L_", "result": 2.296}, {"measurement": "B03_logFC", "setting": "Degron-ID 3732, SEQ ID NO 3791, 46F_47T_49N_50I_52G_53A_54P_55F_67L_", "result": 3.027}, {"measurement": "B03_logFC", "setting": "Degron-ID 3780, SEQ ID NO 3821, 46F_47T_49P_50I_52G_53A_54A_55F_67L_", "result": 2.968}, {"measurement": "B03_logFC", "setting": "Degron-ID 3781, SEQ ID NO 4044, 46F_47T_49P_50I_52G_53A_54C_55F_67L", "result": 2.617}, {"measurement": "B03_logFC", "setting": "Degron-ID 3785, SEQ ID NO 4309, 46F_47T_49P_50I_52G_53A_54G_55F_67L_", "result": 2.191}, {"measurement": "B03_logFC", "setting": "Degron-ID 3788, SEQ ID NO 4401, 46F_47T_49P_50I_52G_53A_54K_55F_67L_", "result": 2.037}, {"measurement": "B03_logFC", "setting": "Degron-ID 3794, SEQ ID NO 3832, 46F_47T_49P_50I_52G_53A_54R_55F_67L_", "result": 2.953}, {"measurement": "B03_logFC", "setting": "Degron-ID 3795, SEQ ID NO 3794, 46F_47T_49P_50I_52G_53A_54S_55F_67L_", "result": 3.024}, {"measurement": "B03_logFC", "setting": "Degron-ID 3799, SEQ ID NO 4275, 46F_47T_49P_50I_52G_53A_54Y_55F_67L_", "result": 2.254}, {"measurement": "B03_logFC", "setting": "Degron-ID 3820, SEQ ID NO 3759, 46F_47T_49P_50V_52G_53A_54A_55F_67L_", "result": 3.111}, {"measurement": "B03_logFC", "setting": "Degron-ID 3825, SEQ ID NO 4370, 46F_47T_49P_50V_52G_53A_54G_55F_67L_", "result": 2.087}, {"measurement": "B03_logFC", "setting": "Degron-ID 3832, SEQ ID NO 3725, 46F_47T_49P_50V_52G_53A_54P_55F_67L_", "result": 3.158}, {"measurement": "B03_logFC", "setting": "Degron-ID 3845, SEQ ID NO 4301, 46F_47V_49D_50I_52G_53A_54G_55F_67L_", "result": 2.218}, {"measurement": "B03_logFC", "setting": "Degron-ID 3852, SEQ ID NO 3672, 46F_47V_49D_50I_52G_53A_54P_55F_67L_", "result": 3.292}, {"measurement": "B03_logFC", "setting": "Degron-ID 3855, SEQ ID NO 4387, 46F_47V_49D_50I_52G_53A_54S_55F_67L_", "result": 2.058}, {"measurement": "B03_logFC", "setting": "Degron-ID 3892, SEQ ID NO 3846, 46F_47V_49D_50V_52G_53A_54P_55F_67L", "result": 2.929}, {"measurement": "B03_logFC", "setting": "Degron-ID 3900, SEQ ID NO 3870, 46F_47V_49E_50I_52G_53A_54A_55F_67L", "result": 2.893}, {"measurement": "B03_logFC", "setting": "Degron-ID 3905, SEQ ID NO 3771, 46F_47V_49E_50I_52G_53A_54G_55F_67L_", "result": 3.073}, {"measurement": "B03_logFC", "setting": "Degron-ID 3911, SEQ ID NO 4413, 46F_47V_49E_50I_52G_53A_54N_55F_67L_", "result": 2.026}, {"measurement": "B03_logFC", "setting": "Degron-ID 3915, SEQ ID NO 4257, 46F_47V_49E_50I_52G_53A_54S_55F_67L_", "result": 2.279}, {"measurement": "B03_logFC", "setting": "Degron-ID 3940, SEQ ID NO 3679, 46F_47V_49E_50V_52G_53A_54A_55F_67L_", "result": 3.275}, {"measurement": "B03_logFC", "setting": "Degron-ID 3954, SEQ ID NO 3932, 46F_47V_49E_50V_52G_53A_54R_55F_67L", "result": 2.784}]}
